In the supplement of paper PMC10849652:
This is one part of the list.

Chains of the proteins cited; added tags and fusions are not shown. Lines headed by an entry give the natural chain unless they say otherwise; changes in a name come on top.
UniProt Q8NF64: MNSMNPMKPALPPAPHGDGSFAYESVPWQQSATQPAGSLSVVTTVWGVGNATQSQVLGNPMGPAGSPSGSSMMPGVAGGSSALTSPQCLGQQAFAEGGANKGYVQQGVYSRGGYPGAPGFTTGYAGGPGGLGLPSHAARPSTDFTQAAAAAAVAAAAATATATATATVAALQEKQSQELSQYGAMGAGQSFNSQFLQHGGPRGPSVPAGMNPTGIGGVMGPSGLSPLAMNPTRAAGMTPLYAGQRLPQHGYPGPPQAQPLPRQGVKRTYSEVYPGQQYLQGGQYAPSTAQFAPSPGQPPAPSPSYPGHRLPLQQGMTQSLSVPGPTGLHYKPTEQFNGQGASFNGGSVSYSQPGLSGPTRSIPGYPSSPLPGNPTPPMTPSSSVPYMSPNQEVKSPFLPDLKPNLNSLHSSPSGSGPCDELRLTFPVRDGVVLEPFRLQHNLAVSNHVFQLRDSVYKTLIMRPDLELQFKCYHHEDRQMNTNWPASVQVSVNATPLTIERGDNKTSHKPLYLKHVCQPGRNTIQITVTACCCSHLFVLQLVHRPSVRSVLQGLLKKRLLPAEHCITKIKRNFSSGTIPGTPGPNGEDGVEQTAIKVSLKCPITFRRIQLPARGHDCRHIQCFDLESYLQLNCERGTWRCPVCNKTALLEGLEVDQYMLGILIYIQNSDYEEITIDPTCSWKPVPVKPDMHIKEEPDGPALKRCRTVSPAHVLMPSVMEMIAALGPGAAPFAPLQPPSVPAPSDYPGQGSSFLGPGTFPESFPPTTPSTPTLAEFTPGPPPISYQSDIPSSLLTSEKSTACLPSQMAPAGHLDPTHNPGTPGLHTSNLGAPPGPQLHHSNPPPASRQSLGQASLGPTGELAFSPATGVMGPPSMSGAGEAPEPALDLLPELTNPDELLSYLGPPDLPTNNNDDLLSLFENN
UniProt Q8WV99: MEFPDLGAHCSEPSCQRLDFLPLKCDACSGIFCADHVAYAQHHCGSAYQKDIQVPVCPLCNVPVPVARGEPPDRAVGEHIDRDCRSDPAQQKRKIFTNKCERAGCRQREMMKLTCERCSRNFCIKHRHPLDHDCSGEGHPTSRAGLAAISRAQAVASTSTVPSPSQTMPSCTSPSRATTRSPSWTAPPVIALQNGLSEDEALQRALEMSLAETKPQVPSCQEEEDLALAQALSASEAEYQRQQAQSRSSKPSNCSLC
UniProt P27348: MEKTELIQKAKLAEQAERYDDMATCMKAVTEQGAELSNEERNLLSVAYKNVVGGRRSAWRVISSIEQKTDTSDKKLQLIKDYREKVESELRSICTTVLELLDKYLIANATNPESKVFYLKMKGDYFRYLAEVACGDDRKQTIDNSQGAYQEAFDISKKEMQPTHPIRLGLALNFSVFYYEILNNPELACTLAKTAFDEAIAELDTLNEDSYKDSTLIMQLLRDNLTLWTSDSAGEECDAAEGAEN
UniProt Q6PJT7: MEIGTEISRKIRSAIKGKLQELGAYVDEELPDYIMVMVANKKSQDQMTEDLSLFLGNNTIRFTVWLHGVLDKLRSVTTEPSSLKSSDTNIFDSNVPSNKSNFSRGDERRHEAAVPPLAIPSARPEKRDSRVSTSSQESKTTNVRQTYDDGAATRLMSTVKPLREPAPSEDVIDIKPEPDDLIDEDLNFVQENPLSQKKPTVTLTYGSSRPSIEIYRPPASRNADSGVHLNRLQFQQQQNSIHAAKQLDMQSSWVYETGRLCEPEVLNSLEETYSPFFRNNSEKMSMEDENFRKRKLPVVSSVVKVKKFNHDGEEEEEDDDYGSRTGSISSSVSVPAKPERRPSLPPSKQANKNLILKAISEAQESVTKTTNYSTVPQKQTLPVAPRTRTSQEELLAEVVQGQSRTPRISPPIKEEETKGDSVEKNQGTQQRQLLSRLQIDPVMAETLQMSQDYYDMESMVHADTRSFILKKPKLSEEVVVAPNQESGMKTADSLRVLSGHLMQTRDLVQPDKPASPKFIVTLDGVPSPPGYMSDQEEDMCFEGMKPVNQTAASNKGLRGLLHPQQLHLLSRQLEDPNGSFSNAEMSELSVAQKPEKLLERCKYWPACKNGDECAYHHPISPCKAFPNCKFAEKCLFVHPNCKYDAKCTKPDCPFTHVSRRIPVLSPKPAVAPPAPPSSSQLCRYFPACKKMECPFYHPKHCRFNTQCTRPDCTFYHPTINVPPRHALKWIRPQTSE
UniProt P49750: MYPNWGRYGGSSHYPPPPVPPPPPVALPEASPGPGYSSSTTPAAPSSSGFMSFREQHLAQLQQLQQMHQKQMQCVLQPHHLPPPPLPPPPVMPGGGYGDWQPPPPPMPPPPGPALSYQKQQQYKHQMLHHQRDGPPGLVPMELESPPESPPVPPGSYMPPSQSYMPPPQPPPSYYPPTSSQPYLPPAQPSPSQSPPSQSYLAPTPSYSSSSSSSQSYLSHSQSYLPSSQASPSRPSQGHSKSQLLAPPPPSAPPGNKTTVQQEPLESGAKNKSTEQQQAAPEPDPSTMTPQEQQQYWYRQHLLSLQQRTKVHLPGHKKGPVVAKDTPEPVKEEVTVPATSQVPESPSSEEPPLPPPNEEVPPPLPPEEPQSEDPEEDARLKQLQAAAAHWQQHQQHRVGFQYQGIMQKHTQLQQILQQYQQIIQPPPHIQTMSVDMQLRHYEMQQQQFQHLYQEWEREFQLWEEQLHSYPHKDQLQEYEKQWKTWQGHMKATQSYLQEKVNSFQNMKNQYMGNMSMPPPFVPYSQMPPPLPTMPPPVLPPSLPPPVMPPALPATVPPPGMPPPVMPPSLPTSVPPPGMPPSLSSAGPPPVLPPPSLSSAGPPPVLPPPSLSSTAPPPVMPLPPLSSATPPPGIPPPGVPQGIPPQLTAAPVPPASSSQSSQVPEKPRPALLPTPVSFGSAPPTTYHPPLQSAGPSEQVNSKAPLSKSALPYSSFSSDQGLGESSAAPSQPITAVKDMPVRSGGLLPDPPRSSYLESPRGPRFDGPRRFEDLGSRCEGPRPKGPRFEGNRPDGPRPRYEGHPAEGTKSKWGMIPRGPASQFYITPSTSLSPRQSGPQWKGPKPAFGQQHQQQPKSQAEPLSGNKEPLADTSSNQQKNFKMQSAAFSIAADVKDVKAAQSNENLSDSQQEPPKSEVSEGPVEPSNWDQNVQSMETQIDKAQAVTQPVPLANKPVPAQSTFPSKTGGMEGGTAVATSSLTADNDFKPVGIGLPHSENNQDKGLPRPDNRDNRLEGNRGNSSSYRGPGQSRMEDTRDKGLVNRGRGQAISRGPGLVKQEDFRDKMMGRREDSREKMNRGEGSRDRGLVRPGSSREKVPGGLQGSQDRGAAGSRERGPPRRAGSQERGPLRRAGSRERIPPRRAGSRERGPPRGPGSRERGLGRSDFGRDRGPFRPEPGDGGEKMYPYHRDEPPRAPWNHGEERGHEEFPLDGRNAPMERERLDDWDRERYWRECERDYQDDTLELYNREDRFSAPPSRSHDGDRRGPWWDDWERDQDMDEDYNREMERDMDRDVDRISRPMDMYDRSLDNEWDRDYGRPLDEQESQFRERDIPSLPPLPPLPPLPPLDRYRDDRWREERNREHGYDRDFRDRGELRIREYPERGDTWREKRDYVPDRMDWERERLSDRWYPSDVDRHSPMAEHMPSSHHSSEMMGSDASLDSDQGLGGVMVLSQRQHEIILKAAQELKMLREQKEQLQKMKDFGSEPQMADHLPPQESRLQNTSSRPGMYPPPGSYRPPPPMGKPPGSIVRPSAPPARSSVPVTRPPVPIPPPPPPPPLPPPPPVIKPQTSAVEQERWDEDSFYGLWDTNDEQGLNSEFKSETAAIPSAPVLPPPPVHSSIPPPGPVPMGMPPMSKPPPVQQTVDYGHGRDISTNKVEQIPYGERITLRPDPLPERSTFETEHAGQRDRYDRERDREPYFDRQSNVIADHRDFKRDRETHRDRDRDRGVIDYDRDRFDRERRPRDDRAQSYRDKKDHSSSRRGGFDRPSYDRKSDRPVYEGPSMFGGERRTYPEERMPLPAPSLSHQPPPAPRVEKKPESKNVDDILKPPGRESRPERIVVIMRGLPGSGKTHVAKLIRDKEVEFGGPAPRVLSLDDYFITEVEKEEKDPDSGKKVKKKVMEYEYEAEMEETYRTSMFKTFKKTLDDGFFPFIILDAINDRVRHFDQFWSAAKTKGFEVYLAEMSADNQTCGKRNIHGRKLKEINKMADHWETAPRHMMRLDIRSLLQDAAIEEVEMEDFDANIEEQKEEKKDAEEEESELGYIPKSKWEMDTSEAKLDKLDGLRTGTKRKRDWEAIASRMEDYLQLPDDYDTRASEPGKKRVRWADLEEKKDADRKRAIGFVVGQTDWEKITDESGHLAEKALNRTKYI
UniProt Q5T4F4: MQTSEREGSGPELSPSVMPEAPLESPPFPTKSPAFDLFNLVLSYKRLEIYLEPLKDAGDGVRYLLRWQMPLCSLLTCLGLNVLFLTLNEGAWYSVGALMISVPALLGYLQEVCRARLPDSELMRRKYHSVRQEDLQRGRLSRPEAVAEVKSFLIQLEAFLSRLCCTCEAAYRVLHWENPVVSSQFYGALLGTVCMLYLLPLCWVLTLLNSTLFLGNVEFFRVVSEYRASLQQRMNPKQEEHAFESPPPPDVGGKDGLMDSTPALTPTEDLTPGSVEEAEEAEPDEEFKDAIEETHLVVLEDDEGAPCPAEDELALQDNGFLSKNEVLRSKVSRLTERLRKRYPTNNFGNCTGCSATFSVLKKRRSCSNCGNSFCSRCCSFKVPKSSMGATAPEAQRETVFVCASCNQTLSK
UniProt Q969M3: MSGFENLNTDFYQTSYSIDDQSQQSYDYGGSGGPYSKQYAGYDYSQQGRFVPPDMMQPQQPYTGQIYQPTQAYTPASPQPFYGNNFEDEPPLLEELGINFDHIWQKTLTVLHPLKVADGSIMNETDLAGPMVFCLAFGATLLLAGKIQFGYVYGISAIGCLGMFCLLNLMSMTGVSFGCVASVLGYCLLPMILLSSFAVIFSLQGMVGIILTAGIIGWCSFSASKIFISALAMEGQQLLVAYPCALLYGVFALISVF
UniProt Q9NRH1: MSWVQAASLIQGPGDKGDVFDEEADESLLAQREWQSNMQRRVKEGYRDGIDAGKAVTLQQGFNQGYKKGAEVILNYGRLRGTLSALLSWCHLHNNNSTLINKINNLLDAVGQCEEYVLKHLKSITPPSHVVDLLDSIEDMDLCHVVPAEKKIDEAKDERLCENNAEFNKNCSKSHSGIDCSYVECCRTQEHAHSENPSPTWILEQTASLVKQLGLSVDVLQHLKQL
UniProt Q9UPT8: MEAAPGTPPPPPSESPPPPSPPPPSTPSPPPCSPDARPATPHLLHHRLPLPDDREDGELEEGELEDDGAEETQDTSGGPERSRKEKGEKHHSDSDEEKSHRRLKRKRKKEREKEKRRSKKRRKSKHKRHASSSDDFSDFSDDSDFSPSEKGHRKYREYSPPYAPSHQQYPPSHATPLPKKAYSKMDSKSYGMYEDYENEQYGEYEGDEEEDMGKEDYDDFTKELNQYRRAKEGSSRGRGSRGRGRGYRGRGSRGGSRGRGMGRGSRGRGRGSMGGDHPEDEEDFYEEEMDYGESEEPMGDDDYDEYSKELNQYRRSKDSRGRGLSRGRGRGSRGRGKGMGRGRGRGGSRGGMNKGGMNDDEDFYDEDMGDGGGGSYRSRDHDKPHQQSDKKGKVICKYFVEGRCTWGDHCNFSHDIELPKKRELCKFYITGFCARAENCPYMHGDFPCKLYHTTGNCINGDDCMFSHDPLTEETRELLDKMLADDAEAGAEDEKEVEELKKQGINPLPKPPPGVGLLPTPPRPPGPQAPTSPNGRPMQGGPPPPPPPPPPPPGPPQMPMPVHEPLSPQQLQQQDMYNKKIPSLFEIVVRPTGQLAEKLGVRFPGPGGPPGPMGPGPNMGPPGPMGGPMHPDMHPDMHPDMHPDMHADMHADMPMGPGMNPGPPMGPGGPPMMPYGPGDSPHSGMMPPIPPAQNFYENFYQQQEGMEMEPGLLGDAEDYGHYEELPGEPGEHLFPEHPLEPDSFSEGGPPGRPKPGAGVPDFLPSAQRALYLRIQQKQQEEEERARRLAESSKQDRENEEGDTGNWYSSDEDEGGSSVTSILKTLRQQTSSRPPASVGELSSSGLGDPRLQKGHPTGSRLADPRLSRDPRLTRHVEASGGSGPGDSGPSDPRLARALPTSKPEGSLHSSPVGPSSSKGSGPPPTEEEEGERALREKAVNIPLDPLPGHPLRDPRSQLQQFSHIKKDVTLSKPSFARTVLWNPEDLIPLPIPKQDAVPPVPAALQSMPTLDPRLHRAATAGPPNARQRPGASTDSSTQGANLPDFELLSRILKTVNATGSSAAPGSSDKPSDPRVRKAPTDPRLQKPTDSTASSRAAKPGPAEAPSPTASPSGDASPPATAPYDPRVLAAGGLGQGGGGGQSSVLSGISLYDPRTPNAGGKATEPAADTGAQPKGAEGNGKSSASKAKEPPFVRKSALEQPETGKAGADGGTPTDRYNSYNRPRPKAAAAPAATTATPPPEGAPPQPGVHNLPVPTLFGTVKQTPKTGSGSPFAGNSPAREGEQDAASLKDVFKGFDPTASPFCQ

What was measured:
Assay in all cases: log2 fold change, soluble protein after heating vs DMSO (PISA); higher = thermal stabilisation; K562 cells, 10 uM, 30 min; active = over 0.2 and 3.5 SD of the protein, either way, in both replicates (recomputed)
bafetinib = compound: Cc1ccc(NC(=O)c2ccc(CN3CC[C@H](N(C)C)C3)c(C(F)(F)F)c2)cc1Nc1nccc(-c2cncnc2)n1 [bafetinib]
Procedure, shortened: (§1)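 Thermal stability values are relative to control samples and come from duplicates. They are expressed as log2 fold changes. For measurement, K562 cells (2×10^6 cells/mL) received 10 μM compound for 30 min, and aliquots were heated for 3 min over 48°C-58°C, pooled, and extracted at 4°C in PBS with 0.5% NP-40. Soluble protein, the supernatant after 21,000xg for 90 min, was quantified by TMTpro 16plex LC-MS/MS with equalised channel sums.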

[1] = compound: Cc1cccc(CC(=O)N2CCc3c2ccc(-c2cn(C)c4ncnc(N)c24)c3F)n1
Procedure, shortened: as §1

nilotinib = compound: Cc1cn(-c2cc(NC(=O)c3ccc(C)c(Nc4nccc(-c5cccnc5)n4)c3)cc(C(F)(F)F)c2)cn1 [nilotinib]
Procedure, shortened: as §1

[2] = compound: Cc1nc(Nc2n[nH]c3c2CN(C(=O)N[C@H](CN(C)C)c2ccccc2)C3(C)C)c2sccc2n1
Procedure, shortened: as §1

dasatinib = compound: Cc1nc(Nc2ncc(C(=O)Nc3c(C)cccc3Cl)s2)cc(N2CCN(CCO)CC2)n1 [dasatinib]
Procedure, shortened: as §1

[3] = compound: Cc1ncc(-c2ccnc(Nc3ccc(S(C)(=O)=O)cc3)n2)n1C(C)C
Procedure, shortened: as §1

[4] = compound: Cn1cc(-c2ccc3c(c2)CCN3C(=O)Cc2cccc(C(F)(F)F)c2)c2c(N)ncnc21
Procedure, shortened: as §1

[5] = compound: Cn1cc(-c2ccc3nnc(C(F)(F)c4ccc5ncccc5c4)n3n2)cn1
Procedure, shortened: as §1

tipifarnib = compound: Cn1cncc1[C@@](N)(c1ccc(Cl)cc1)c1ccc2c(c1)c(-c1cccc(Cl)c1)cc(=O)n2C [tipifarnib]
Procedure, shortened: as §1

mubritinib = compound: FC(F)(F)c1ccc(/C=C/c2nc(COc3ccc(CCCCn4ccnn4)cc3)co2)cc1 [mubritinib]
Procedure, shortened: as §1

[6] = compound: NC(=O)Nc1cc(-c2cccc(F)c2)sc1C(=O)N[C@H]1CCCNC1
Procedure, shortened: as §1

[7] = compound: NC(=O)c1cnc(N[C@@H]2CCCC[C@@H]2N)nc1Nc1cccc(-n2nccn2)c1
Procedure, shortened: as §1

[8] = compound: NC1(c2ccc(-c3nc4ccn5c(=O)[nH]nc5c4cc3-c3ccccc3)cc2)CCC1
Procedure, shortened: as §1

[9] = compound: NCC(=O)Nc1ccc(-n2nc(C(F)(F)F)cc2-c2ccc3c(ccc4ccccc43)c2)cc1
Procedure, shortened: as §1

entinostat = compound: Nc1ccccc1NC(=O)c1ccc(CNC(=O)OCc2cccnc2)cc1 [entinostat]
Procedure, shortened: as §1

vorinostat = compound: O=C(CCCCCCC(=O)Nc1ccccc1)NO [vorinostat]
Procedure, shortened: as §1

citarinostat = compound: O=C(CCCCCCNC(=O)c1cnc(N(c2ccccc2)c2ccccc2Cl)nc1)NO [citarinostat]
Procedure, shortened: as §1

silmitasertib = compound: O=C(O)c1ccc2c(c1)nc(Nc1cccc(Cl)c1)c1ccncc12 [silmitasertib]
Procedure, shortened: as §1

[10] = compound: O=C1NC(=O)C(c2cnc3ccccn23)=C1c1cn2c3c(cc(F)cc13)CN(C(=O)N1CCCCC1)CC2
Procedure, shortened: as §1

[11] = compound: c1cc(OCCN2CCCCC2)cc(-c2n[nH]c3ccc(-c4nnc[nH]4)cc23)c1
Procedure, shortened: as §1

Row | Target | log2 fold change (bafetinib) | log2 fold change [1] | log2 fold change (nilotinib) | log2 fold change [2] | log2 fold change (dasatinib) | log2 fold change [3] | log2 fold change [4] | log2 fold change [5] | log2 fold change (tipifarnib) | log2 fold change (mubritinib) | log2 fold change [6] | log2 fold change [7] | log2 fold change [8] | log2 fold change [9] | log2 fold change (entinostat) | log2 fold change (vorinostat) | log2 fold change (citarinostat) | log2 fold change (silmitasertib) | log2 fold change [10] | log2 fold change [11]
1 | YARS (UniProt P54577) | inactive: 0 | inactive: 0.04 | inactive: -0.074 | inactive: -0.089 | inactive: -0.086 | inactive: 0.034 | inactive: 0.003 | inactive: 0.001 | inactive: -0.096 | inactive: 0.011 | inactive: -0.034 | inactive: -0.104 | inactive: -0.044 | inactive: -0.045 | inactive: 0.011 | inactive: 0.023 | inactive: 0.057 | inactive: 0.061 | inactive: 0.042 | inactive: -0.032
2 | ZMIZ2 (UniProt Q8NF64) | inactive: -0.143 | inactive: -0.086 | inactive: -0.217 | inactive: -0.06 | inactive: -0.035 | inactive: 0.066 | inactive: 0.05 | inactive: 0.1 | inactive: 0.039 | inactive: 0.119 | inactive: -0.035 | inactive: -0.061 | inactive: 0.011 | inactive: 0.031 | inactive: -0.087 | inactive: -0.21 | inactive: 0.053 | inactive: 0.094 | inactive: 0.03 | inactive: -0.088
3 | ZFAND2B (UniProt Q8WV99) | inactive: -0.011 | inactive: -0.082 | inactive: -0.001 | inactive: -0.049 | inactive: -0.011 | inactive: 0.022 | inactive: 0 | inactive: 0.058 | inactive: -0.042 | inactive: -0.01 | inactive: -0.035 | inactive: 0.014 | inactive: -0.041 | inactive: 0.032 | inactive: -0.043 | inactive: 0.041 | inactive: 0.065 | inactive: 0.06 | inactive: 0.008 | inactive: -0.065
4 | YWHAQ (UniProt P27348) | inactive: -0.035 | active: 0.694 | inactive: 0.018 | inactive: -0.033 | inactive: -0.149 | inactive: -0.026 | inactive: 0.124 | inactive: -0.066 | inactive: -0.112 | inactive: 0.049 | inactive: 0.065 | inactive: 0.172 | inactive: 0.007 | inactive: 0.457 | inactive: 0.116 | inactive: 0.39 | inactive: 0.02 | inactive: 0 | inactive: -0.095 | inactive: 0.105
5 | ZC3H14 (UniProt Q6PJT7) | inactive: -0.083 | inactive: -0.037 | inactive: -0.068 | inactive: -0.085 | inactive: 0.027 | inactive: 0.043 | inactive: -0.155 | inactive: 0.093 | inactive: 0.024 | inactive: -0.149 | inactive: 0.095 | inactive: 0.096 | inactive: 0.021 | inactive: -0.072 | inactive: -0.051 | inactive: -0.04 | inactive: -0.012 | inactive: -0.002 | inactive: 0.129 | inactive: 0.046
6 | YLPM1 (UniProt P49750) | inactive: 0.083 | inactive: -0.05 | inactive: -0.044 | inactive: -0.075 | inactive: -0.062 | inactive: -0.011 | inactive: 0.077 | inactive: 0.031 | inactive: -0.048 | inactive: -0.038 | inactive: -0.023 | inactive: -0.034 | inactive: -0.046 | inactive: -0.069 | inactive: -0.064 | inactive: 0.024 | inactive: 0.099 | inactive: -0.009 | inactive: 0.026 | inactive: 0
7 | XPOT (UniProt O43592) | inactive: -0.014 | inactive: 0.013 | inactive: -0.083 | inactive: -0.012 | inactive: -0.13 | inactive: 0.083 | inactive: -0.075 | inactive: 0.066 | inactive: -0.173 | inactive: 0.077 | inactive: -0.04 | inactive: -0.103 | inactive: -0.241 | inactive: -0.061 | inactive: 0.063 | inactive: 0.031 | inactive: 0.069 | inactive: 0.134 | inactive: 0.057 | inactive: -0.047
8 | ZFYVE27 isoform 2 (UniProt Q5T4F4) | inactive: -0.007 | inactive: 0.203 | inactive: -0.032 | inactive: 0.012 | inactive: -0.019 | inactive: -0.036 | inactive: 0.046 | inactive: -0.061 | inactive: -0.01 | inactive: -0.033 | inactive: -0.007 | inactive: -0.071 | inactive: -0.056 | inactive: -0.127 | inactive: 0.015 | inactive: 0.103 | inactive: -0.006 | inactive: 0.033 | inactive: -0.067 | inactive: -0.154
9 | YIPF5 isoform 3 (UniProt Q969M3) | inactive: -0.028 | inactive: 0.06 | inactive: 0.021 | inactive: 0.016 | inactive: 0.055 | inactive: -0.03 | inactive: -0.014 | inactive: 0.12 | inactive: -0.059 | inactive: 0.012 | inactive: 0.023 | inactive: -0.016 | inactive: 0.017 | inactive: 0.021 | inactive: -0.05 | inactive: 0.156 | inactive: 0.023 | inactive: 0 | inactive: 0.032 | inactive: -0.043
10 | ZER1 (UniProt Q7Z7L7) | inactive: -0.055 | inactive: 0.369 | inactive: 0.098 | inactive: -0.141 | inactive: -0.033 | inactive: 0.058 | inactive: -0.021 | inactive: -0.024 | inactive: 0.111 | inactive: 0.044 | inactive: -0.046 | inactive: -0.001 | inactive: 0 | inactive: 0.03 | inactive: 0.049 | inactive: 0.055 | inactive: 0.192 | inactive: 0.028 | inactive: -0.198 | inactive: 0.023
11 | ZFYVE19 (UniProt Q96K21) | inactive: -0.081 | inactive: -0.046 | inactive: 0.055 | inactive: 0.015 | inactive: 0.038 | inactive: -0.012 | inactive: -0.002 | inactive: 0.01 | inactive: 0.06 | inactive: 0.029 | inactive: 0.02 | inactive: 0.084 | inactive: 0.058 | inactive: -0.007 | inactive: -0.039 | inactive: 0.024 | inactive: -0.059 | inactive: -0.019 | inactive: 0.045 | inactive: 0.023
12 | YIPF6 (UniProt Q96EC8) | inactive: -0.169 | inactive: -0.006 | inactive: 0.063 | inactive: -0.042 | inactive: 0.256 | inactive: -0.023 | inactive: -0.035 | inactive: 0.032 | inactive: -0.035 | inactive: 0.036 | inactive: -0.081 | inactive: -0.088 | inactive: -0.024 | inactive: 0.071 | inactive: 0.228 | inactive: -0.035 | inactive: 0.011 | inactive: 0.02 | inactive: 0.01 | inactive: 0.036
13 | ZDHHC17 (UniProt Q8IUH5) | inactive: -0.007 | inactive: -0.082 | inactive: -0.004 | inactive: -0.012 | inactive: -0.002 | inactive: -0.022 | inactive: 0.018 | inactive: -0.029 | inactive: 0.032 | inactive: 0.051 | inactive: 0.084 | inactive: -0.003 | inactive: -0.06 | inactive: 0.012 | inactive: -0.047 | inactive: -0.079 | inactive: -0.17 | inactive: 0.025 | inactive: 0.043 | inactive: 0.068
14 | YAE1 (UniProt Q9NRH1) | inactive: 0.013 | inactive: 0.008 | inactive: -0.023 | inactive: 0.104 | inactive: 0.152 | inactive: 0.042 | inactive: -0.095 | inactive: 0.043 | inactive: -0.008 | inactive: -0.062 | inactive: -0.023 | inactive: -0.038 | inactive: 0.086 | inactive: -0.011 | inactive: 0.011 | inactive: 0.044 | inactive: 0.04 | inactive: -0.009 | inactive: -0.02 | inactive: -0.001
15 | ZC3H4 (UniProt Q9UPT8) | inactive: 0.122 | inactive: -0.057 | inactive: 0.047 | inactive: 0.093 | inactive: 0.158 | inactive: 0.031 | inactive: -0.237 | inactive: -0.098 | inactive: 0.179 | inactive: -0.09 | inactive: 0.009 | inactive: 0.076 | inactive: 0.21 | inactive: 0.11 | inactive: -0.072 | inactive: -0.034 | inactive: -0.032 | inactive: 0.039 | inactive: 0.092 | inactive: -0.12
16 | ZCCHC3 (UniProt Q9NUD5) | inactive: 0.119 | inactive: 0 | inactive: 0.038 | inactive: 0.027 | inactive: 0.12 | inactive: -0.044 | inactive: -0.189 | inactive: -0.09 | inactive: 0.132 | inactive: -0.027 | inactive: 0.022 | inactive: 0.06 | inactive: 0.169 | inactive: 0.058 | inactive: -0.028 | inactive: -0.034 | inactive: -0.102 | inactive: 0.111 | inactive: 0.136 | inactive: -0.18

An excerpt from further up:
Row | Target | log2 fold change (bafetinib) | log2 fold change [1] | log2 fold change (nilotinib) | log2 fold change [2] | log2 fold change (dasatinib) | log2 fold change [3] | log2 fold change [4] | log2 fold change [5] | log2 fold change (tipifarnib) | log2 fold change (mubritinib) | log2 fold change [6] | log2 fold change [7] | log2 fold change [8] | log2 fold change [9] | log2 fold change (entinostat) | log2 fold change (vorinostat) | log2 fold change (citarinostat) | log2 fold change (silmitasertib) | log2 fold change [10] | log2 fold change [11]
9 | YIPF5 isoform 3 (UniProt Q969M3) | inactive: -0.028 | inactive: 0.06 | inactive: 0.021 | inactive: 0.016 | inactive: 0.055 | inactive: -0.03 | inactive: -0.014 | inactive: 0.12 | inactive: -0.059 | inactive: 0.012 | inactive: 0.023 | inactive: -0.016 | inactive: 0.017 | inactive: 0.021 | inactive: -0.05 | inactive: 0.156 | inactive: 0.023 | inactive: 0 | inactive: 0.032 | inactive: -0.043
10 | ZER1 (UniProt Q7Z7L7) | inactive: -0.055 | inactive: 0.369 | inactive: 0.098 | inactive: -0.141 | inactive: -0.033 | inactive: 0.058 | inactive: -0.021 | inactive: -0.024 | inactive: 0.111 | inactive: 0.044 | inactive: -0.046 | inactive: -0.001 | inactive: 0 | inactive: 0.03 | inactive: 0.049 | inactive: 0.055 | inactive: 0.192 | inactive: 0.028 | inactive: -0.198 | inactive: 0.023
11 | ZFYVE19 (UniProt Q96K21) | inactive: -0.081 | inactive: -0.046 | inactive: 0.055 | inactive: 0.015 | inactive: 0.038 | inactive: -0.012 | inactive: -0.002 | inactive: 0.01 | inactive: 0.06 | inactive: 0.029 | inactive: 0.02 | inactive: 0.084 | inactive: 0.058 | inactive: -0.007 | inactive: -0.039 | inactive: 0.024 | inactive: -0.059 | inactive: -0.019 | inactive: 0.045 | inactive: 0.023
12 | YIPF6 (UniProt Q96EC8) | inactive: -0.169 | inactive: -0.006 | inactive: 0.063 | inactive: -0.042 | inactive: 0.256 | inactive: -0.023 | inactive: -0.035 | inactive: 0.032 | inactive: -0.035 | inactive: 0.036 | inactive: -0.081 | inactive: -0.088 | inactive: -0.024 | inactive: 0.071 | inactive: 0.228 | inactive: -0.035 | inactive: 0.011 | inactive: 0.02 | inactive: 0.01 | inactive: 0.036
